# No constants are given. Whether binding was seen depends on the method and setting. Binding seen in cells or lysates may run through a third protein. Some entries that bind do so weakly or less than the wild type.
# Sequences of proteins named here, by UniProt entry; tags and fusion partners are left off. Residues count along the entry.
# UniProt P17931: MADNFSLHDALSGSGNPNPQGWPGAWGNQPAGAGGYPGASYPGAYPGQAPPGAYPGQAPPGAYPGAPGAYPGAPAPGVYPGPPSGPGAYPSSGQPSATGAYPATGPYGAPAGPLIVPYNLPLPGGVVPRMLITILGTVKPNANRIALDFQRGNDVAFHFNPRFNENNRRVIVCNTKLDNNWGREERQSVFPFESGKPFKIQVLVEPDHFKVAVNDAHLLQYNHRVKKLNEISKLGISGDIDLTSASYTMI
# UniProt O00206, residues 24-839: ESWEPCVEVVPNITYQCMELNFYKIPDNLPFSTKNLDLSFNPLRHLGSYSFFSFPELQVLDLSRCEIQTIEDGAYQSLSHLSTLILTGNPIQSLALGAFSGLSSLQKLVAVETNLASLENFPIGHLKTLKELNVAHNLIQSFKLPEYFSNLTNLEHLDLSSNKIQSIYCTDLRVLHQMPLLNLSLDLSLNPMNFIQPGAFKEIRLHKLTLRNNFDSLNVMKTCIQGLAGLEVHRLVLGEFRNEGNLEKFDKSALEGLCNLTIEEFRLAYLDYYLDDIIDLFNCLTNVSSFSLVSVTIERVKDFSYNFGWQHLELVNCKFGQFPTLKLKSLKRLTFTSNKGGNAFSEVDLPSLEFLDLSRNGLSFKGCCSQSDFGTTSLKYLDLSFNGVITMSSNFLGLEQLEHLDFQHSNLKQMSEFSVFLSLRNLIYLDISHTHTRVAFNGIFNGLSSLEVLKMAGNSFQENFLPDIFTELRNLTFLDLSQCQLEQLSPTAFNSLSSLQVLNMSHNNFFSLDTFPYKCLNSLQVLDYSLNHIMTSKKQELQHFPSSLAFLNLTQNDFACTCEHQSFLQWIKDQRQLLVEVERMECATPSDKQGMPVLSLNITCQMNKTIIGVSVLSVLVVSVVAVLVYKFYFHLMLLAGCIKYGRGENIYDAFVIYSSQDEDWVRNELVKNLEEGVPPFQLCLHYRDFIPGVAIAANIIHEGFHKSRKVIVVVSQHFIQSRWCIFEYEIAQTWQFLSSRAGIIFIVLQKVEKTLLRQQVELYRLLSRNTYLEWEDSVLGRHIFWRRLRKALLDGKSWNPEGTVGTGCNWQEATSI
# Molecular target: galectin-3 (human (endogenous in human brain vascular smooth muscle cells)) (UniProt P17931)
# Assay: co-IP; lysate of VSMCs with protease inhibitors incubated with anti-galectin-3 antibody or IgG and magnetic beads at 4 °C for 12 h; beads washed with lysis buffer; eluate analysed by Western blot; for TLR4, cells transfected with mimic-NC or tRF-AspGTC mimic
substance,measurement,value
toll-like receptor 4 (from UniProt O00206 24-839),binding,binds
